From patent publication US20250281630A1 (TORAY INDUSTRIES, published 2025)
No constants are given. Whether binding was seen depends on the method and setting. Some results given as binding are weak or reduced against the parent protein; the word gives no strength.

T1: mouse CAPRIN-1 on mouse cancer cells (mouse, UniProt Q60865 2-707)
T1 construct: whole, on cells
T1 sequence (looked up): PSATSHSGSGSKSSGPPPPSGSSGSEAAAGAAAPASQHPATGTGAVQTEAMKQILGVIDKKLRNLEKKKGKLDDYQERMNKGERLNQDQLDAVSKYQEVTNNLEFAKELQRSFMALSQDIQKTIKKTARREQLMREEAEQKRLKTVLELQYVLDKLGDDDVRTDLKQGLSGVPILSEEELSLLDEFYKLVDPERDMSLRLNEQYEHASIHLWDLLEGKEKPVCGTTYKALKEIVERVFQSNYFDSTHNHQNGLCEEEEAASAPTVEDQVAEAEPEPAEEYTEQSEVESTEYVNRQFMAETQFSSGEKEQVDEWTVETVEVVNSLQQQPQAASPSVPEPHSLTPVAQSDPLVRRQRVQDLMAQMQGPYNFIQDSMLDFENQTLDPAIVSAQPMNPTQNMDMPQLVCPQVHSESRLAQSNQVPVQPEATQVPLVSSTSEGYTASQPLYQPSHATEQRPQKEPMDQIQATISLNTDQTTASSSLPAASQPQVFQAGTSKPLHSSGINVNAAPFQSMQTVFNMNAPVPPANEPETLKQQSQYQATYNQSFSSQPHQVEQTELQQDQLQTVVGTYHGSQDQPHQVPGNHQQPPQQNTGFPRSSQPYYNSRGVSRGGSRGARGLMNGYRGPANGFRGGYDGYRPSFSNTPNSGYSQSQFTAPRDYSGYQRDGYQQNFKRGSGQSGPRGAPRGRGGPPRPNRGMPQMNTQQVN

T2: human CAPRIN-1 on the cell membrane surface of human cancer cells (human) (UniProt Q14444)
T2 sequence (looked up): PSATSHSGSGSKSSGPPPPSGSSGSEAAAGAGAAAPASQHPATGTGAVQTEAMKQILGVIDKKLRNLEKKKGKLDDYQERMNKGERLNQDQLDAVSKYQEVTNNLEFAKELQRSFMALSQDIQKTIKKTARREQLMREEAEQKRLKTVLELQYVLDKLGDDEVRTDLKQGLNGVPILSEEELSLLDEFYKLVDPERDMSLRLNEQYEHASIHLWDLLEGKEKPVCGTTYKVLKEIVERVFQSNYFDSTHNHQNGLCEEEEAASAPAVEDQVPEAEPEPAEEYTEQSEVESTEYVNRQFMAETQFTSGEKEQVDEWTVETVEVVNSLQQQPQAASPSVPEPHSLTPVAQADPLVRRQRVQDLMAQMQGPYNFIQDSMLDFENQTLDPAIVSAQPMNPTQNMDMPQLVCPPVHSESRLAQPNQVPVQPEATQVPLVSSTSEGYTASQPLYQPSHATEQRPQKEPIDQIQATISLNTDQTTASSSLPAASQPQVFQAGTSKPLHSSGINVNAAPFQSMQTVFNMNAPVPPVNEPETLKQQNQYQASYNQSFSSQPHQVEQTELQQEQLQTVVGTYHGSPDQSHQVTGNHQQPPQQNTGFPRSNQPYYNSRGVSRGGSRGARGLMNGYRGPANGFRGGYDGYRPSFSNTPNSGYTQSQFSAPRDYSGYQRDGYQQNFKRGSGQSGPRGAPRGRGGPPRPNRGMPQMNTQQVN


Tests used:
[1] = biological target: T1, mouse CAPRIN-1 on mouse cancer cells; experiment: flow cytometry, Renca and 4T1 cells
[2] = biological target: T2, human CAPRIN-1 on the cell membrane surface of human cancer cells (human); experiment: flow cytometry, BT474 cells
[3] = biological target: T2, human CAPRIN-1 on the cell membrane surface of human cancer cells (human); experiment: HT29 cells, as shown in Example 5
[4] = biological target: T2, human CAPRIN-1 on the cell membrane surface of human cancer cells (human); experiment: flow cytometry, human cancer cell lines

Row | binding [1] | binding [2] | binding [3] | binding [4] | Binder
1 | binds | binds | binds | binds | Conjugate 12 (antibody, human IgG1, V domains shown) VH: EQSLVESGGGLVQPGGSLRLSCAASGFSLSSHSLGWVRQAPGKGLEWIGDIRSGGSAYYANWAKGRFTISRDNSKNTLYLQMNSLRAEDTAVYYCTRTNGPSDLTNRLDLWGQGTLVTVSS VL: QVLTQSPSSLSASVGDRVTINCQASQSLYNNENLAWFQQKPGKVPKRLIYGASTLASGVSSRFSGSGSGTEFTLTISSLQCEDFAIYYCLGEFSCGSADCFAFGGGTKVEIK
2 | binds | binds | binds | binds | Conjugate 80 (antibody, human IgG1, V domains shown) VH: EVQLVESGGGLVQPGGSLRLSCAASGFSLSSHSLGWVRQAPGKGLEWIGDIRSGGSAYYANWAKGRFTISRDNSKNTLYLQMNSLRAEDTAVYFCTRTNGPSDLTNRLDLWGQGTLVTVSS VL: EQVLTQSPSSLSASVGDRVTINCQASQSLYNNENLAWFQQKPGKVPKRLIYGASTLASGVSSRFSGSGSGTEFTLTISNLQPEDFAIYYCLGEFSCGSADCFAFGGGTKVEIK
3 | binds | binds | binds | binds | Conjugate 92 (antibody, V domains shown) VH: EQSLVESGGGLVQPGGSLRLSCAASGFSLSSHSLGWVRQAPGKGLEWIGDIRSGGSAYYANWAKGRFTISRDNSKNTLYLQMNSLRAEDTAVYYCTRTNGPSDLTNRLDLWGQGTLVTVSS VL: QVLTQSPSSLSASVGDRVTINCQASQSLYNNENLAWFQQKPGKVPKRLIYGASTLASGVSSRFSGSGSGTEFTLTISSLQCEDFAIYYCLGEFSCGSADCFAFGGGTKVEIK
4 | binds | binds | binds | binds | Conjugate 78 (antibody, human IgG1, V domains shown) VH: EVQLVESGGGLVQPGGSLRLSCAASGFSLSSHSLGWVRQAPGKGLEWIGDIRSGGSAYYANWAKGRFTISRDNSKNTLYLQMNSLRAEDTAVYFCTRTNGPSDLTNRLDLWGQGTLVTVSS VL: EIVLTQSPSSLSASVGDRVTINCQASQSLYNNENLAWFQQKPGKVPKRLIYGASTLASGVSSRFSGSGSGTEFTLTISNLQPEDFATYYCLGEFSCGSADCFAFGGGTKVEIK
5 | binds | binds | binds | binds | Conjugate 75 (antibody, human IgG1, V domains shown) VH: EVQLVESGGGLVQPGGSLRLSCAASGFSLSSHSLGWVRQAPGKGLEWIGDIRSGGSAYYANWAKGRFTISRDNSKNTLYLQMNSLRAEDTAVYYCTRTNGPSDLTNRLDLWGQGTLVTVSS VL: QVLTQSPSSLSASVGDRVTINCQASQSLYNNENLAWFQQKPGKVPKRLIYGASTLASGVSSRFSGSGSGTEFTLTISSLQCEDFAIYYCLGEFSCGSADCFAFGGGTKVEIK
6 | binds | binds | binds | binds | Conjugate 76 (antibody, human IgG1, V domains shown) VH: EVQLVESGGGLVQPGGSLRLSCAASGFSLSSHSLGWVRQAPGKGLEWIGDIRSGGSAYYANWAKGRFTISRDNSKNTLYLQMNSLRAEDTAVYFCTRTNGPSDLTNRLDLWGQGTLVTVSS VL: QVLTQSPSSLSASVGDRVTINCQASQSLYNNENLAWFQQKPGKVPKRLIYGASTLASGVSSRFSGSGSGTEFTLTISSLQCEDFAIYYCLGEFSCGSADCFAFGGGTKVEIK
7 | binds | binds | binds | binds | Conjugate 77 (antibody, human IgG1, V domains shown) VH: EVQLVESGGGLVQPGGSLRLSCAASGFSLSSHSLGWVRQAPGKGLEWIGDIRSGGSAYYANWAKGRFTISRDNSKNTLYLQMNSLRAEDTAVYYCTRTNGPSDLTNRLDLWGQGTLVTVSS VL: EQVLTQSPSSLSASVGDRVTINCQASQSLYNNENLAWFQQKPGKVPKRLIYGASTLASGVSSRFSGSGSGTEFTLTISNLQPEDFAIYYCLGEFSCGSADCFAFGGGTKVEIK
8 | binds | binds | binds | binds | Conjugate 79 (antibody, human IgG1, V domains shown) VH: EVQLVESGGGLVQPGGSLRLSCAASGFSLSSHSLGWVRQAPGKGLEWIGDIRSGGSAYYANWAKGRFTISRDNSKNTLYLQMNSLRAEDTAVYYCTRTNGPSDLTNRLDLWGQGTLVTVSS VL: EIVLTQSPSSLSASVGDRVTINCQASQSLYNNENLAWFQQKPGKVPKRLIYGASTLASGVSSRFSGSGSGTEFTLTISNLQPEDFATYYCLGEFSCGSADCFAFGGGTKVEIK
9 | binds | binds | binds | binds | Conjugate 52 (antibody, human IgG1, V domains shown) VH: GAELVRSGASVKMSCKASGYSFTDYNMYWVKQTPGQGLEWIGYIYPGNGGTNYNQKFKGKATLTADTSSSTAYMQISSLTSEDSAVYFCARDYDDGGYAMDYWGQGTTVTVSS VL: DIQMTQSPASLSASVGETVTITCRASGNIHNYLTWYQQKQGKSPQLLVYNAKTLADGVPSRFSGSGSGTQYSLKINRLQPEDFGSYYCQHFWNIPWTFGGGTKLNSR
10 | binds | binds | binds | binds | Conjugate 53 (antibody, human IgG1, V domains shown) VH: DAELVKPGASVKISCKASGYTFTDHSIHWVQQKPEQGLEWIGYISPGNGNIKYNEKFKGKATLTADKSSSTAYMQLNSLTSEDSAVYFCKRSLGRGGPYYFDYWGQGTTVTVSS VL: DIVLTQAAPSLPVTPGESVSISCRSSKSLLHSNGNTYLYWFLQRPGQSPQLLIYRMSNLASGVPDRFSGSGSGTAFTLRISRVEAEDVGVYYCMQHREYPVTFGSGPN
11 | binds | binds | binds | binds | Conjugate 48 (antibody, human IgG1, V domains shown) VH: AVTLDESGGGLQTPGGALSLVCKASGFTFSGYDMLWVRQAPGKGLEWVAGIGSTGGGTDYGAAVKGRATISRDNGQSTVRLQLNNLRAEDTATYYCAKVAGGCNSGYCRDSPGSIDAWGHGTEVIVS VL: AVTQQPASVSANPGETVKITCSGGGSRNYYGWYQQKSPGSVPVTVIYYDDQRPSNIPSRFSGALSGSTSTLTITGVQADDEAVYFCGSADSNTYEGSFGAGTTLTVL
12 | binds | binds | binds | binds | Conjugate 36 (antibody, human IgG1, V domains shown) VH: GPDLVKPGASVKISCKASGYSFTAYYMHWVKQSHGKSLEWIGRVNPNNGGTTYNQKFKGKAILTVDKSSSTAYMELRSLTFEDSAVYYCARRIYYGYFDYWGQGTTVTVSS VL: AFFAVSLGQRATISCKASQSVDYDGDSYMNWYQQKPGQPPKLLIYVASNLESGVPARFSGSGSGTDFTLNIHPVEEEDAATYYCQQSNEDPYTFGGGTKLEIKQ
13 | binds | binds | binds | binds | Conjugate 69 (antibody, human IgG1, V domains shown) VH: GPDLVKPGASVKISCKASGYSFTAYYMHWVKQSHGKSLEWIGRVNPNNGGTTYNQKFKGKAILTVDKSSSTAYMELRSLTFEDSAVYYCARRIYYGYFDYWGQGTTVTVSS VL: AFFAVSLGQRATISCKASQSVDYDGDSYMNWYQQKPGQPPKLLIYVASNLESGVPARFSGSGSGTDFTLNIHPVEEEDAATYYCQQSNEDPYTFGGGTKLEIKQ
14 | binds | binds | binds | binds | Conjugate 116 (antibody, V domains shown) VH: GPDLVKPGASVKISCKASGYSFTAYYMHWVKQSHGKSLEWIGRVNPNNGGTTYNQKFKGKAILTVDKSSSTAYMELRSLTFEDSAVYYCARRIYYGYFDYWGQGTTVTVSS VL: AFFAVSLGQRATISCKASQSVDYDGDSYMNWYQQKPGQPPKLLIYVASNLESGVPARFSGSGSGTDFTLNIHPVEEEDAATYYCQQSNEDPYTFGGGTKLEIKQ
